Laboratory results from US20030129629A1, “Methods and compositions for the identification, assessment, prevention, and therapy of human cancers” (Millennium Pharmaceuticals, Inc., priority 2000, published 2003).
Where “and” joins values, the source holds several entries; their conditions need not be identical. Identical values can stand only once. Counter-ions that a name gives are not always drawn. Like-named read-outs stand apart in the source and are kept apart here.

Test system: 60 cancer cell lines (NCI 60 cancer cell line series)
Experiment: NCI-DTP in vitro cancer screen, sulforhodamine B (SRB) growth inhibition, 48 hour exposure
Assay type: cell-based, human
Procedure: Cancer Cell Line Preparation. Sixty cancer cell lines were obtained from the National Cancer Institute Developmental Therapeutics Program (NCI-DTP). Procedures for growing cells and testing compounds have been described previously (Scudiero et al., Cancer Res. 1988, 48:4827-4833; Stinson et al., Anticancer Res.; Myers et al., Electrophoresis 1997, 18:647-653). Cells are plated on day 0 at a density individualized for each cell line so that they will generally be sub-confluent at the end of the assay period. On day 1, a compound is added in the format for a duplicate-well, 5-dose, ten-fold interval dose response study.
No-drug, no-cell and no-growth controls are included. On day 3 the cells are processed for staining with sulforhodamine B (SRB), which reflects the amount of cell mass present at the end of a 48 hour exposure to the test agent. From dose response curves based on the SRB data, various parameters can be determined. […] More precisely, the quantity used in the calculation to be described is the potency measure −log{GI50}.
Activity database (A). […] This subset of compounds was selected from the larger 23,000 compound database available from the DTP. The compounds were selected on the basis of their known mechanism of action and chemical structure. The average potency −log{GI50} was extracted from the comma-delimited text files available through the Web at http://www.nci.nih.gov/intra/lmp/jnwbio.html. Subsequently, these −log{GI50} values were inspected manually and classified as indicating either Low, Medium or High sensitivity to each compound.

[1] = number of the cell lines classified High (3) sensitivity
[2] = number of the cell lines classified Low (1) sensitivity
[3] = number of the cell lines classified Medium (2) sensitivity

Row | Structure (SMILES) | 1 # of Low | 2 # Medium | 3 # High | 3 # High [1] | 1 # of Low [2] | 2 # Medium [3]
1 | OC[C@H]1O[C@@H](n2cnc3c2N=CNC[C@H]3O)C[C@@H]1O [2′-deoxycoformycin] | 9 | 43 | 8 |  |  | 
2 | O=c1[nH]cc(F)c(=O)[nH]1 [5-Fluorouracil] |  |  |  | 8 | 13 | 39
3 | Sc1ncnc2nc[nH]c12 [6-mercaptopurine] |  |  |  | 7 | 12 | 41
4 | COc1cccc2c1C(=O)c1c(O)c3c(c(O)c1C2=O)C[C@@](O)(C(=O)CO)C[C@@H]3O[C@H]1C[C@H](N)[C@H](O)[C@H](C)O1 [Adriamycin] |  |  |  | 5 | 7 | 48
5 | Nc1ccn([C@@H]2O[C@H](CO)[C@@H](O)[C@@H]2O)c(=O)n1 [AraC] | 17 | 33 | 10 |  |  | 
6 | O=NN(CCCl)C(=O)NCCCl [BCNU] | 13 | 37 | 10 |  |  | 
7 | CS(=O)(=O)OCCCCOS(C)(=O)=O [Busulfan] |  |  |  | 8 | 24 | 28
8 | O=C(O)CCCc1ccc(N(CCCl)CCCl)cc1 [Chlorambucil] |  |  |  | 9 | 24 | 27
9 | COc1cccc2c1C(=O)c1c(O)c3c(c(O)c1C2=O)C[C@@](O)(C(C)=O)C[C@@H]3O[C@H]1C[C@H](N)[C@H](O)[C@H](C)O1 [Daunorubicin] |  |  |  | 6 and 10 | 24 and 20 | 30
10 | COc1cccc2c1C(=O)c1c(O)c3c(c(O)c1C2=O)C[C@@](O)(C(=O)CO)C[C@@H]3OC1CC(N)CC(C)O1.Cl (some centres unmarked) [Deoxydoxorubicin] |  |  |  | 7 | 11 and 9 | 42 and 44
11 | COc1cc([C@@H]2c3cc4c(cc3[C@@H](O[C@@H]3O[C@@H]5CO[C@@H](C)O[C@H]5[C@H](O)[C@H]3O)[C@H]3COC(=O)[C@H]23)OCO4)cc(OC)c1O [Etoposide] |  |  |  | 10 | 12 | 38
12 | NC(=O)NO [Hydroxyurea] |  |  |  | 11 | 15 | 34
13 | N[C@@H](Cc1ccc(N(CCCl)CCCl)cc1)C(=O)O [Melphalan] |  |  |  | 9 | 5 | 46
14 | CN(Cc1cnc2nc(N)nc(N)c2n1)c1ccc(C(=O)N[C@@H](CCC(=O)O)C(=O)O)cc1 [Methotrexate] |  |  |  | 15 and 19 | 17 and 15 | 28 and 26
15 | O=C1c2c(O)ccc(O)c2C(=O)c2c(NCCNCCO)ccc(NCCNCCO)c21 [Mitoxantrone] |  |  |  | 17 | 18 | 25
16 | CC(=O)O[C@H]1C(=O)[C@@]2(C)[C@H]([C@H](OC(=O)c3ccccc3)[C@]3(O)C[C@H](OC(=O)[C@H](O)[C@@H](NC(=O)c4ccccc4)c4ccccc4)C(C)=C1C3(C)C)[C@]1(OC(C)=O)CO[C@@H]1C[C@@H]2O [TAXOL, paclitaxel] |  |  |  | 13 and 10 and 9 | 11 and 14 and 8 | 36 and 43
17 | COc1cc([C@@H]2c3cc4c(cc3[C@@H](O[C@@H]3O[C@@H]5CO[C@@H](c6cccs6)O[C@H]5[C@H](O)[C@H]3O)[C@H]3COC(=O)[C@H]23)OCO4)cc(OC)c1O [Teniposide] |  |  |  | 7 | 5 | 48
18 | CC[C@]1(O)C[C@@H]2CN(CCc3c([nH]c4ccccc34)[C@@](C(=O)OC)(c3cc4c(cc3OC)N(C)[C@H]3[C@@](O)(C(=O)OC)[C@H](OC(C)=O)[C@]5(CC)C=CCN6CC[C@]43[C@@H]65)C2)C1 [Vinblastine sulfate] |  |  |  | 15 and 14 | 9 and 8 | 36 and 38
19 | CC[C@]1(O)C[C@H]2CN(CCc3c([nH]c4ccccc34)[C@@](C(=O)OC)(c3cc4c(cc3OC)N(C=O)[C@H]3[C@@](O)(C(=O)OC)[C@H](OC(C)=O)[C@]5(CC)C=CCN6CC[C@]43[C@@H]65)C2)C1 [Vincristine sulfate] |  |  |  | 20 | 7 | 33
20 | N.N.[Cl][Pt][Cl] [cisplatin, cis-Diamminedichloroplatinum (II)] |  |  |  | 8 and 12 |  | 42 and 41 and 32
